Data taken from PubChem BioAssay AID1487 (National Center for Advancing Translational Sciences (NCATS), 2009).
Screen size: about 200,000 compounds; about 25 (0.01%) were called active. The shares of active, inactive and inconclusive entries below differ from those in the screen. The call rests on the fitted dose curve; in most records, active means well fitted inhibition curve with a large enough effect in the signal ratio, with a control signal flat (not every such curve was filed as active); inconclusive means small, poorly fitted or top-dose-only effect, or effect the other way, or a change in a side signal; inactive means flat fitted curve, though single readings scatter; the % refers to the signal ratio. Where the call is inconclusive, the potency comes from a doubtful curve fit.

Assay: qHTS Assay for Modulators of Lamin A Splicing
Details: HeLa LMNA splicing GFP/RFP minigene ratio, 48 h
Procedure, shortened: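 S3 HeLa stable clones carrying a lamin A-EGFP splicing minigene plus DsRed2 were seeded at 600 cells/well in Opti-MEM with 2% FBS, pin-dosed and incubated 48 h at 37°C. Acumen cytometry (488 nm) gave the GFP/RFP total-intensity ratio.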

[1] = ratio change, negative = inhibition: at 46.1 µM (top of the series) unless noted
On the % scale 0 is the no-effect control and ±100 the full control effect; potency means the concentration at half of the fitted maximal effect.

## CCCCNc1nc2c(c(=O)n(C)c(=O)n2C)n1Cc1cccc(OC)c1
[1]
  Potency: inconclusive: 7.94 µM [fluorescent, partial curve]

## Nc1c(NCCc2ccccc2)c2ccccc2oc1=O
[1]
  ratio change, negative = inhibition: inconclusive: 6.11% [at 46 µM]

## Cn1c(-c2ccc(N)cc2)nc2ccccc21
[1]
  ratio change, negative = inhibition: inactive

## CC(=O)c1ccc(N2CCN(c3ccc(S(=O)(=O)NCCCN(C)C)cc3[N+](=O)[O-])CC2)cc1
[1]
  Potency: inconclusive: 35.5 µM [inhibitor, single point]

## COCCN(CCOC)S(=O)(=O)c1ccc(C(=O)Nc2nnc(COC)o2)cc1
[1]
  Potency: inconclusive: 0.0045 µM [activator, full curve]

## c1ccc2oc(CCc3nc4ccccc4o3)nc2c1
[1]
  ratio change, negative = inhibition: inconclusive: -6.22%

## Oc1c(Cl)cc(Cl)cc1/C=N/NC(=S)NC1CC2C=CC1C2 (stereo not drawn)
[1]
  ratio change, negative = inhibition: inconclusive: -27.9% [at 46 µM]

## NC(CSSCC(N)C(=O)O)C(=O)O (stereo not drawn)
[1]
  ratio change, negative = inhibition: inconclusive: -35.5%

## Cc1cccc(C(=O)NCC(c2ccc3c(c2)OCO3)N2CCOCC2)c1 (stereo not drawn)
[1]
  ratio change, negative = inhibition: inconclusive: -17.1% [at 46 µM]

## COc1ccccc1Nc1nc(C)cs1
[1]
  ratio change, negative = inhibition: inactive

## CCc1cccc2c3c([nH]c12)C(CC)(CC(=O)O)OCC3 (stereo not drawn)
At 46 µM (top of the series)
  ratio change, negative = inhibition: inconclusive: 7.55%
At 46.1 µM (top of the series)
  ratio change, negative = inhibition: inconclusive: -9.89%

## CCc1ccc(C2C(C(=O)Nc3ccccc3)=C(C)Nc3nc(SCC(=O)c4ccc(C)cc4)nn32)cc1 (stereo not drawn)
[1]
  ratio change, negative = inhibition: inconclusive: 13% [at 46 µM]

## O=C(CSc1nccn1Cc1ccccc1)NC1CCCC1
[1]
  ratio change, negative = inhibition: inconclusive: 7.74% [at 46 µM]

## O=C(CCS(=O)(=O)c1cccc2nonc12)NCc1ccc(Cl)cc1
[1]
  ratio change, negative = inhibition: inactive: -20.8% [at 9.22 µM]

## Cc1ccnc(NC(=O)COc2c(C)cc(C)cc2[N+](=O)[O-])c1
[1]
  ratio change, negative = inhibition: inconclusive: 4.02%

## NC1=NC(=O)C(Cc2ccccc2)S1 (stereo not drawn)
[1]
  ratio change, negative = inhibition: inactive

## Cc1n[nH]c(=S)c2nn(-c3cccc(Cl)c3)c(C)c12
[1]
  ratio change, negative = inhibition: inactive

## Cc1cc(-c2nnc(SCC(=O)Nc3ccccc3C(F)(F)F)o2)c(C)n1-c1ccccc1
[1]
  ratio change, negative = inhibition: inactive

## COc1ccc(NC(=O)CSc2nc3[nH]ncc3c(=O)n2-c2ccccc2C)cc1OC
[1]
  ratio change, negative = inhibition: inconclusive: 8.43%

## CSC1=NCCN1C(=O)c1ccc(S(=O)(=O)N2CCCCC2)cc1
[1]
  ratio change, negative = inhibition: inactive

## CC(=O)Oc1ccc(/C=N/NC(=O)CCSc2ccccc2)cc1
[1]
  ratio change, negative = inhibition: inconclusive: -14.2% [at 46 µM]

## Cc1ccoc1C(=O)NCCNc1ccc(Cl)cc1[N+](=O)[O-]
[1]
  ratio change, negative = inhibition: inconclusive: 12.4%

## CC(C)n1cc(/C=C2/NC(=O)N(c3cccc(Cl)c3)C2=O)c2ccccc21
[1]
  Potency: inconclusive: 20 µM [falling, single point]

## Cc1ccc(S(=O)(=O)N2c3ccccc3-c3c(ssc3=S)C2(C)C)cc1
[1]
  ratio change, negative = inhibition: inactive

## COc1ccccc1N/C(=N/S(=O)(=O)c1ccc(C)cc1)c1ccccc1
[1]
  ratio change, negative = inhibition: inconclusive: 3.39%

## CC(O)CNc1cc(N)c([N+](=O)[O-])cc1[N+](=O)[O-] (stereo not drawn)
[1]
  ratio change, negative = inhibition: inactive

## COc1ccccc1-n1cnnc1SCC(=O)NC1CCS(=O)(=O)C1 (stereo not drawn)
[1]
  ratio change, negative = inhibition: inconclusive: -3.29% [at 46 µM]

## O=C(c1ccco1)N1c2ccccc2Sc2ccccc21
[1]
  Potency: inconclusive: 35.5 µM [falling, single point]

## S=C(Nc1ccc(Cl)cc1)Nc1cccc2cnccc12
[1]
  Potency: inconclusive: 25.1 µM [fluorescent, single point]

## CC(=O)c1c(C(C)=O)c(C)n(Cc2ccc3c(c2)OCO3)c1C
[1]
  Potency: inconclusive: 11.2 µM [falling, partial curve]

## COC(=O)/C=C/c1ccc2c(c1)OCO2
[1]
  ratio change, negative = inhibition: inconclusive: -0.371% [at 46 µM]

## COc1cccc(CNC(=O)CCC2CCCN(C(=O)c3ccoc3)C2)c1 (stereo not drawn)
[1]
  ratio change, negative = inhibition: inactive

## C=CCNC(=S)Nc1ccc(OC(F)F)c(Cl)c1
[1]
  Potency: inconclusive: 20 µM [inhibitor, single point]

## CCN1CCN(C(=O)c2ccc3c(=O)n(Cc4ccccc4OC)c(=S)[nH]c3c2)CC1
[1]
  ratio change, negative = inhibition: inactive

## CCCC(c1nnnn1Cc1ccco1)N1CCN(C(=O)c2ccco2)CC1 (stereo not drawn)
[1]
  ratio change, negative = inhibition: inactive

## COc1ccc(CCNC(=O)CCSCc2ccccc2Cl)cc1OC
[1]
  ratio change, negative = inhibition: inconclusive: 15.5% [at 46 µM]

## O=C(NC1=NCCS1)c1cccc(OC(F)F)c1
[1]
  ratio change, negative = inhibition: inconclusive: 10.4% [at 46 µM]

## O=c1[nH]c(CCC2CCCC2)nc2ccccc12
[1]
  ratio change, negative = inhibition: inactive

## O=C(NC1CC1)C1CCCN1C(=O)NC1CCCCC1 (stereo not drawn)
[1]
  ratio change, negative = inhibition: inconclusive: 13.9% [at 46 µM]

## CC(C)NC(=O)c1onc(CSc2ccc(Cl)cc2)c1C(=O)O
[1]
  Potency: inconclusive: 2.24 µM [inhibitor, single point]

## Cc1ccc(NC(=O)CN2CCC(NC(=O)C3CCCCC3)CC2)c(Br)c1
[1]
  ratio change, negative = inhibition: inconclusive: -3.18%

## Cc1c(-c2nc(N)nc(Nc3ccccc3F)n2)oc2ccccc12
[1]
  ratio change, negative = inhibition: inconclusive: 40.7%

## O=C(O)c1ccc(NC(=O)c2cn(-c3ccccc3)nc2-c2ccc(Br)cc2)cc1
[1]
  ratio change, negative = inhibition: inconclusive: -33.8% [at 46 µM]

## OCCOCCN1CCN(C(c2ccccc2)c2ccc(Cl)cc2)CC1 (stereo not drawn)
[1]
  ratio change, negative = inhibition: inconclusive: -4.73%

## O=C(O)c1ccc(N/N=C/c2ccc(-c3ccccc3)cc2)cc1
[1]
  ratio change, negative = inhibition: inconclusive: 8.48% [at 9.22 µM]

## Cc1ccc(N2CCN(C(=O)c3cc(S(=O)(=O)N4CCCCC4)c[nH]3)CC2)c(C)c1
[1]
  ratio change, negative = inhibition: inconclusive: 395% [at 46 µM]

## Oc1ccc(CN2CCCCC2)c2cccnc12
[1]
  Potency: inconclusive: 35.5 µM [falling, single point]

## O=C(Nc1ccc(Br)cc1)c1cccnc1N1CCOCC1
[1]
  ratio change, negative = inhibition: inconclusive: 23.6% [at 46 µM]

## O=C(CN1C(=O)NC2(CCCc3ccccc32)C1=O)Nc1cccc(S(=O)(=O)N2CCCCC2)c1 (stereo not drawn)
[1]
  Potency: inconclusive: 15.8 µM [fluorescent, partial curve]

## CCNc1nc(NCC)nc(NC(N)=S)n1
[1]
  ratio change, negative = inhibition: inconclusive: -11.6% [at 46 µM]

## CC1(C)CC2CC(C)(CN2S(=O)(=O)c2ccc(C(=O)Nc3cccc(S(=O)(=O)N4CCOCC4)c3)cc2)C1 (stereo not drawn)
[1]
  ratio change, negative = inhibition: inconclusive: -46.8%

## O=C1CCc2cc(S(=O)(=O)N3CCN(c4ccccc4F)CC3)ccc2N1
[1]
  Potency: inconclusive: 15.8 µM [falling, single point]
